We go through 1 substance from article PMC4392283.

For assay [1], the target named is PKCα (human (endogenous in HEK293)) (UniProt P17252). The experiment in a line: condition: only normal glucose conditions (Glc(+)), cells without glucose deprivation; co-IP; HEK293 cells in Glc(+) DMEM (normal glucose), 10 μM MG132 for 8 h; PKCα immunoprecipitated with an anti-PKCα antibody, immunoblotting with anti-β-catenin and anti-PKCα antibodies.
The target is the same in assay [2]. Nature of the assay: co-IP; HEK293 cells in Glc(−) DMEM (glucose deprivation), 10 μM MG132 for 8 h from 16 h; PKCα immunoprecipitated with an anti-PKCα antibody, immunoblotting with anti-β-catenin and anti-PKCα antibodies. On the technique in general: In western blotting, separated proteins are transferred to a membrane and probed.

No constants are given. Whether binding was seen depends on the method and setting. In cells and extracts the contact can be indirect. Some results given as binding are weak or reduced against the parent protein; the word gives no strength.

As for β-catenin (from UniProt P35222 1-781), the results for the binding entry in assay [1] and in assay [2] were “no binding” and “binds”, respectively.
